Experimental data reported in patent publication US20090074663A1.
These are yes or no findings as the source states them, for the method shown. Some binding calls cover weakened binding; strength is not graded here.

Protein sequences, listed by entry. Tags and fused reporters are not part of them. Residues count along the entry.
UniProt P24394, residues 26-825: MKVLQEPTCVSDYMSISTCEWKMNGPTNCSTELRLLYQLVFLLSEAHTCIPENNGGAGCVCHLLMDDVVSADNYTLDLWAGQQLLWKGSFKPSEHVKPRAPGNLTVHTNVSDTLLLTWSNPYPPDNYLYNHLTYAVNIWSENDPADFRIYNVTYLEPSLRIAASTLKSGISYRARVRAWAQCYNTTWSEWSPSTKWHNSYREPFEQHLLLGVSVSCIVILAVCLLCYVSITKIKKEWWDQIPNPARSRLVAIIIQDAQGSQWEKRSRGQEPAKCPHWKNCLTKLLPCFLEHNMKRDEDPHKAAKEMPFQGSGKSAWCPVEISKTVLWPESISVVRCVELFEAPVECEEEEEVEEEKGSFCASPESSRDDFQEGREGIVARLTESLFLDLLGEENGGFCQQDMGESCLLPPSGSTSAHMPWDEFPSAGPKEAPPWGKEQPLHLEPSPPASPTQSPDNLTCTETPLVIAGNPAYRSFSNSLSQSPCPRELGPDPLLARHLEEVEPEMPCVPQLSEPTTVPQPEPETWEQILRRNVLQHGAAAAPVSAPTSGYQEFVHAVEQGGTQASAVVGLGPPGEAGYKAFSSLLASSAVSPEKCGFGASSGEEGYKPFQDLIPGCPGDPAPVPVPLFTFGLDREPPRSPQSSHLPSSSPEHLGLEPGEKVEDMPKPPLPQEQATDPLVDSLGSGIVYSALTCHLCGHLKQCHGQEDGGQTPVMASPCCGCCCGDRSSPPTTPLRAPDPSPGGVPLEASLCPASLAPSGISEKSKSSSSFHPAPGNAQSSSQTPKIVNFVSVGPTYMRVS

Columns and labels:
[1] = target: interleukin-4 receptor (IL-4R) (UniProt P24394); experiment: fluorescence microscopy on cells with artificial expression or removal of IL-4R (FIGS. 6 and 7)
[2] = target: interleukin-4 receptor (IL-4R) (UniProt P24394); experiment: fluorescence microscopy on HT-1376 cells with endogenous IL-4R, compared with IL-4R siRNA knock-down and mock siRNA
[3] = target: interleukin-4 receptor (IL-4R) (UniProt P24394); experiment: fluorescence microscopy, 10 µM peptide on CHO-K1 cells expressing IL-4R; IL-4R-deficient CHO-K1 cells showed no peptide fluorescence
[4] = target: interleukin-4 receptor (IL-4R) (UniProt P24394); experiment: fluorescence microscopy, legend of FIG. 6

binding [1]: binds
binding [2]: binds
binding [3]: binds
binding [4]: binds
Binder: CRKRLDRNC (FITC (fluorescein isothiocyanate) on the N-terminus) [FITC-… peptide]
